Some of these results come from one statement about several compounds together. At least one compound was matched to its structure with a doubt left.
Target: T1, Bos taurus TdT (Bos taurus, UniProt P06526)
T1 construct: purchased Thermo Scientific
Assay: Addition of 3′-irreversibly blocked nucleotide triphosphates to a DNA initiator by Bos taurus TdT
Assay type: biochemical
Conditions: 15 U Bos taurus TdT, 1 mM 3′-blocked nucleotide triphosphate, DNA initiator at 200 μM (1:5000 ratio), 37° C., up to one hour

Chains of the proteins cited; added tags and fusions are not shown. Lines headed by an entry give the natural chain unless they say otherwise; changes in a name come on top.
UniProt P06526: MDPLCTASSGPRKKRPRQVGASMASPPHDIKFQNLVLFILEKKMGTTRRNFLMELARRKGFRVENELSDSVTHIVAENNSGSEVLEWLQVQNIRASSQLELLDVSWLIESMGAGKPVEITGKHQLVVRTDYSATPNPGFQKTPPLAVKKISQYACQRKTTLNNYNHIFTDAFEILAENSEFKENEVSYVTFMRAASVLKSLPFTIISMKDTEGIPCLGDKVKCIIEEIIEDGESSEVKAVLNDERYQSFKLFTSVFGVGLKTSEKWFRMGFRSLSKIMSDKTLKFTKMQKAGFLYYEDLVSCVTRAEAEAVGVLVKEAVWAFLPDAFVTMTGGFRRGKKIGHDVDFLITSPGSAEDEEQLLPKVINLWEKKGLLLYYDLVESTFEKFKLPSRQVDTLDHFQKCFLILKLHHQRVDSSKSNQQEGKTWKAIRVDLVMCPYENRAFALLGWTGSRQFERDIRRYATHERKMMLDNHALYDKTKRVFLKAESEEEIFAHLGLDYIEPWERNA

SMILES | conversion of the n strand to the n+1 strand
Cc1cn([C@H]2C[C@H](N=[N+]=[N-])[C@@H](COP(=O)(O)OP(=O)(O)OP(=O)(O)O)O2)c(=O)[nH]c1=O [3′-Azido dTTP] | greater than 90%
CO[C@H]1C[C@H](n2cc(C)c(=O)[nH]c2=O)O[C@@H]1COP(=O)(O)OP(=O)(O)OP(=O)(O)O [3′-O-Methyl dTTP] | greater than 90%

Source: patent publication US11807887B2, “Compositions and methods related to nucleic acid synthesis” (Nuclera Ltd., priority 2015, dated 2023)
